Measured values reported in US20050118310A1, “Formulations of compounds derived from natural sources and their use with irradiation for food preservation” (priority 2001, published 2005).
For some of these results: The name of at least one read-out is uncertain. Marks after values point to notes of the source that are not given here. Some entries share one result that the patent states for a list of compounds.

Experiments:
E. coli = assay: Irradiation sensitivity (D10) of E. coli in ground beef; type: cell-based, Escherichia coli (ATCC 25922); details: air, 4° C.
S. typhi = assay: Irradiation sensitivity (D10) of S. typhi in ground beef; type: cell-based, Salmonella typhi (ATCC 19430); details: air, 4° C.
Enterobacteriaceae = assay: Shelf life study, indigenous micro-organisms of ground beef, Enterobacteriaceae count; type: cell-based; details: stored at 4° C.; for day of storage by which complete inhibition was reached: active compounds alone (no irradiation); for days for which the immediate complete inhibition was maintained: combination of active compounds with irradiation (1.75 kGy)
[1] = lower concentration: thymol 0.1%, tannic acid 0.38%, rosemary 0.5%, BHT 0.01%, trans-cinnamaldehyde […], carvacrol […], thyme 0.2%, BHA 0.01%, nisin 625 UI/g, EDTA 100 ppm, tetrasodium pyrophosphate 0.1%, carnosine 1.0%, ascorbic acid 0.5%
[2] = vs control without compound, trans-cinnamaldehyde […], thymol 1.15%, thyme 2.33%, carvacrol 0.88%
[3] = vs control, negative = protective effect, thymol 0.1%, tannic acid 0.38%, rosemary 0.5%, BHT 0.01%, trans-cinnamaldehyde […], carvacrol […], thyme 0.2%, BHA 0.01%, nisin 625 UI/g, EDTA 100 ppm, tetrasodium pyrophosphate 0.1%, carnosine 1.0%, ascorbic acid 0.5%
[4] = concentration corresponding to MIC in ground beef: trans-cinnamaldehyde 0.89%, carvacrol 1.15%, thymol 1.6%, thyme 2.75%
[5] = lower concentration: tannic acid 0.38%, nisin 625 UI/g, EDTA 100 ppm, carvacrol […], tetrasodium pyrophosphate 0.1%, trans-cinnamaldehyde […], thymol 0.1%, thyme 0.2%, BHT 0.01%, BHA 0.01%, rosemary 0.5%, carnosine 1.0%, ascorbic acid 0.5%
[6] = vs control without compound, trans-cinnamaldehyde 0.89%, carvacrol 1.15%, thymol 1.6%, thyme 2.75%
[7] = vs control, tannic acid 0.38%, nisin 625 UI/g, EDTA 100 ppm, carvacrol […], tetrasodium pyrophosphate 0.1%, trans-cinnamaldehyde […], thymol 0.1%, thyme 0.2%, BHT 0.01%, BHA 0.01%, rosemary 0.5%, carnosine 1.0%, ascorbic acid 0.5%

Structure (SMILES) | D10(kGy) (E. coli; [1]) | Increase in Sensitivity (E. coli; [2]) [%] | Increase in Sensitivity (E. coli; [3]) [%] | D10(kGy) (S. typhi; [4]) | D10(kGy) (S. typhi; [5]) | Increase in Sensitivity (S. typhi; [6]) [%] | Increase in Sensitivity (S. typhi; [7]) [%] | day of storage by which complete inhibition was reached (Enterobacteriaceae) [days] | days for which the immediate complete inhibition was maintained (Enterobacteriaceae) | D10(kGy) (E. coli; concentration corresponding to MIC in ground beef: trans-cinnamaldehyde […], thymol 1.15%, thyme 2.33%, carvacrol 0.88%)
Cc1ccc(C(C)C)cc1O [Carvacrol, carvacrol] | 0.115 ± 0.0036^ef kGy | 18.2 | 8.7 | 0.208 ± 0.0062^b kGy | 0.343 ± 0.0089^e kGy | 60.4 | 34.8 | – | – | –
O=C/C=C/c1ccccc1 [Trans-cinnamaldehyde, trans-cinnamaldehyde] | 0.115 ± 0.0041^ef kGy | 70.6 | 8.7 | 0.139 ± 0.0025^a kGy | 0.356 ± 0.0047^ef kGy | 73.6 | 32.3 | ≤ 5 | more than 43 days | 0.037 ± 0.0012^a kGy
Cc1ccc(C(C)C)c(O)c1 [Thymol, thymol] | – | – | – | – | – | – | – | ≤ 5 | more than 43 days | –
